PubChem BioAssay AID1259299 – Sanger Institute – 2017

- Screen: 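Knock-down screen of kinome and colorectal mutation genes alongside three targeted drugs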 (primary screen)
- Cell system: human CAR1 colorectal cancer cells
- Reagents: siRNA pool against human genes
- Challenge: anchor drug BYL719 1 µM, cetuximab 5 µg/ml or trametinib 10 nM, or DMSO vehicle alone; exposure length not given
- Measured: 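Cell viability as fraction of non-targeting siRNA wells, mean of replicates, with robust z-score and a synergy score for each of three drugs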
- Reading the numbers: viability robust z-score, knock-down alone: higher = more viable cells
- Hit rule: 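Essential when viability robust z-score with knock-down alone (DMSO) is below -3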
- Calls: active = essential (knock-down alone); inactive = no change
In all, the deposit lists 794 reagents; this is an unselected part. 9 of all reagents (1.1%) were called active. 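Calls rest on knock-down alone; synergy scores play no part in calls, and no gene passed the synergy cut.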 Further read-outs or replicates are left out here. Reagent sequences are not shown. The record does not give: the amount of reagent, the time to read-out.

{"gene symbol":"CSK (C-terminal Src kinase)","viability robust z-score, knock-down alone":0.478,"call":"inactive"}
{"gene symbol":"CDKL5 (cyclin dependent kinase like 5)","viability robust z-score, knock-down alone":0.662,"call":"inactive"}
{"gene symbol":"TGFBR3 (transforming growth factor beta receptor 3)","viability robust z-score, knock-down alone":0.789,"call":"inactive"}
{"gene symbol":"PI4K2A (phosphatidylinositol 4-kinase type 2 alpha)","viability robust z-score, knock-down alone":0.179,"call":"inactive"}
{"gene symbol":"BRAF (B-Raf proto-oncogene, serine/threonine kinase)","viability robust z-score, knock-down alone":-3.27,"call":"active"}
{"gene symbol":"TTBK1 (tau tubulin kinase 1)","viability robust z-score, knock-down alone":0.39,"call":"inactive"}
{"gene symbol":"CDK17 (cyclin dependent kinase 17)","viability robust z-score, knock-down alone":0.789,"call":"inactive"}
{"gene symbol":"AURKC (aurora kinase C)","viability robust z-score, knock-down alone":-1.76,"call":"inactive"}
{"gene symbol":"PLK3 (polo like kinase 3)","viability robust z-score, knock-down alone":0.775,"call":"inactive"}
{"gene symbol":"MASTL (microtubule associated serine/threonine kinase like)","viability robust z-score, knock-down alone":0.052,"call":"inactive"}
{"gene symbol":"MATK (megakaryocyte-associated tyrosine kinase)","viability robust z-score, knock-down alone":0.525,"call":"inactive"}
{"gene symbol":"RUNX1 (RUNX family transcription factor 1)","viability robust z-score, knock-down alone":-2.58,"call":"inactive"}
{"gene symbol":"FLT4 (fms related receptor tyrosine kinase 4)","viability robust z-score, knock-down alone":-0.167,"call":"inactive"}
{"gene symbol":"AURKA (aurora kinase A)","viability robust z-score, knock-down alone":-3.65,"call":"active"}
{"gene symbol":"ETNK1 (ethanolamine kinase 1)","viability robust z-score, knock-down alone":-2.02,"call":"inactive"}
{"gene symbol":"BUB1 (BUB1 mitotic checkpoint serine/threonine kinase)","viability robust z-score, knock-down alone":0.789,"call":"inactive"}
{"gene symbol":"SCYL3 (SCY1 like pseudokinase 3)","viability robust z-score, knock-down alone":0.298,"call":"inactive"}
{"gene symbol":"EIF2AK3 (eukaryotic translation initiation factor 2 alpha kinase 3)","viability robust z-score, knock-down alone":0.789,"call":"inactive"}
{"gene symbol":"PIK3R4 (phosphoinositide-3-kinase regulatory subunit 4)","viability robust z-score, knock-down alone":-0.85,"call":"inactive"}
{"gene symbol":"STK17A (serine/threonine kinase 17a)","viability robust z-score, knock-down alone":-0.19,"call":"inactive"}
{"gene symbol":"TEX14 (testis expressed 14, intercellular bridge forming factor)","viability robust z-score, knock-down alone":0.153,"call":"inactive"}
{"gene symbol":"NEK2 (NIMA related kinase 2)","viability robust z-score, knock-down alone":-0.801,"call":"inactive"}
{"gene symbol":"NEK7 (NIMA related kinase 7)","viability robust z-score, knock-down alone":-0.0623,"call":"inactive"}
{"gene symbol":"FN3K (fructosamine 3 kinase)","viability robust z-score, knock-down alone":-0.896,"call":"inactive"}
{"gene symbol":"CLK2 (CDC like kinase 2)","viability robust z-score, knock-down alone":0.293,"call":"inactive"}
{"gene symbol":"MET (MET proto-oncogene, receptor tyrosine kinase)","viability robust z-score, knock-down alone":0.789,"call":"inactive"}
{"gene symbol":"EPHA1 (EPH receptor A1)","viability robust z-score, knock-down alone":-0.897,"call":"inactive"}
{"gene symbol":"WT1 (WT1 transcription factor)","viability robust z-score, knock-down alone":0.789,"call":"inactive"}
{"gene symbol":"EPHB4 (EPH receptor B4)","viability robust z-score, knock-down alone":0.12,"call":"inactive"}
{"gene symbol":"RPS6KA5 (ribosomal protein S6 kinase A5)","viability robust z-score, knock-down alone":0.595,"call":"inactive"}
{"gene symbol":"NUP107 (nucleoporin 107)","viability robust z-score, knock-down alone":0.725,"call":"inactive"}
{"gene symbol":"NRK (Nik related kinase)","viability robust z-score, knock-down alone":-0.237,"call":"inactive"}
{"gene symbol":"WNK2 (WNK lysine deficient protein kinase 2)","viability robust z-score, knock-down alone":0.789,"call":"inactive"}
{"gene symbol":"CHD9 (chromodomain helicase DNA binding protein 9)","viability robust z-score, knock-down alone":-1.85,"call":"inactive"}
{"gene symbol":"PDK1 (pyruvate dehydrogenase kinase 1)","viability robust z-score, knock-down alone":0.789,"call":"inactive"}
{"gene symbol":"DGKB (diacylglycerol kinase beta)","viability robust z-score, knock-down alone":-1.82,"call":"inactive"}
